# Measurements reported in PubChem BioAssay AID720505 (Drosophila RNAi Screening Center, 2013).
# Aim: 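Knock-downs that reduce calcium influx once internal stores are emptied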 (primary screen)
# Cells: Drosophila S2R+ cells
# Knock-down reagent: long dsRNA against Drosophila genes
# Treatment: thapsigargin (2 µM) in calcium-free buffer to empty internal stores, then 2 mM calcium added back
# Measurement: 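Stores emptied by 2 µM thapsigargin without calcium, then 2 mM calcium re-added; fluo-4 fluorescence followed by FLIPR in 384-well plates, per-well averaged endpoint, raw; two screen passes, some wells retested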
# Reading the numbers: calcium signal and retest calcium signal: higher = more calcium entry after store depletion
# Hit rule: 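About 1500 genes called as lowering calcium entry, by varying amounts, judged against per-plate control wells with STIM1 as positive and Rho1 as negative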
# Meaning of the calls: active = called as lowering calcium entry; inactive = not called
# In all, the deposit lists about 20,000 reagents; below is a random part of those with a known target gene and a result. Of all reagents, about 2,100 (10%) were called active. 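Raw plate signals without normalisation; calls rest on control-based scores that were not deposited; replicate 2 separates called from uncalled poorly.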 A plus sign joins genes that one reagent is predicted to hit. Not given: the amount of reagent, the time to read-out.
The first 3 entries, to show the layout:
predicted target,amplicon,"calcium signal, replicate 1","calcium signal, replicate 2","retest calcium signal, replicate 1","retest calcium signal, replicate 2",Outcome
CG32582 (retired record) (GeneID 318099),DRSC19114,143,116,,,inactive
CG32413 (GeneID 318018),DRSC21591,159,103,,,inactive
5-HT2B (GeneID 41017),DRSC16360,123,137,,,inactive

The list itself, from the start:
predicted target,amplicon,"calcium signal, replicate 1","calcium signal, replicate 2","retest calcium signal, replicate 1","retest calcium signal, replicate 2",Outcome
CG32582 (retired record) (GeneID 318099),DRSC19114,143,116,,,inactive
CG32413 (GeneID 318018),DRSC21591,159,103,,,inactive
5-HT2B (GeneID 41017),DRSC16360,123,137,,,inactive
5-HT2B (GeneID 41017),DRSC16362,138,132,,,inactive
CG1273 (GeneID 38522),DRSC08291,128,121,,,inactive
CG34345 (GeneID 5740402),DRSC02126,108,118,,,inactive
SCAP (GeneID 35529),DRSC04869,163,228,,,inactive
SCAP (GeneID 35529),DRSC04907,144,204,,,inactive
CG17258 (GeneID 33517),DRSC00495,59.8,81.4,,,active
CG17258 (GeneID 33517),DRSC22709,97.4,175,,,inactive
ND-39 (GeneID 40272),DRSC11791,118,112,,,inactive
Nmda1 (GeneID 36419),DRSC07479,169,145,,,inactive
CG12984 (GeneID 40321),DRSC11693,96.4,95.8,,,inactive
Acbp5 (GeneID 39005),DRSC10548,97.3,87.5,,,inactive
CG7220 (GeneID 36129),DRSC05235,107,121,,,inactive
CG7220 (GeneID 36129),DRSC07018,124,165,,,inactive
larp (GeneID 53567),DRSC14728,156,169,,,inactive
larp (GeneID 53567),DRSC16984,162,165,,,inactive
larp (GeneID 53567),DRSC21856,79.3,134,,,inactive
CG31883 (GeneID 326169),DRSC02561,119,120,,,inactive
b (GeneID 34791),DRSC03487,147,119,,,inactive
CG13972 (GeneID 43307),DRSC14715,128,84.6,,,inactive
CG15706 (GeneID 36799),DRSC06577,176,106,,,inactive
CG1764 (GeneID 32281),DRSC19779,108,121,,,inactive
CG8534 (GeneID 41210),DRSC16439,146,107,,,inactive
Scgdelta (GeneID 31129),DRSC18544,88.7,161,,,inactive
Cox11 (GeneID 33776),DRSC22692,94.3,147,,,inactive
RNaseX25 (GeneID 38885),DRSC11259,86.9,126,,,inactive
Cyp310a1 (GeneID 35115),DRSC03301,90.8,111,,,inactive
CG13255 (GeneID 50109),DRSC11702,100,105,,,inactive
beat-Ic (GeneID 34945),DRSC01524,152,77,,,inactive
beat-Ic (GeneID 34945),DRSC03491,141,116,,,inactive
Coq9 (GeneID 246650),DRSC22913,123,159,,,inactive
CG7335 (GeneID 40203),DRSC10816,88.9,144,,,inactive
ApepP (GeneID 35029),DRSC01866,52.2,129,,,active
Tmlh (GeneID 42421),DRSC15563,206,149,,,inactive
sha (GeneID 36213),DRSC06331,157,174,,,inactive
ics (GeneID 34774),DRSC01878,100,80.3,,,inactive
Taf2 (GeneID 39164),DRSC11298,102,97.9,,,inactive
CG14086 (GeneID 40100),DRSC10090,111,163,,,inactive
CG9813 (GeneID 41644),DRSC16569,113,112,,,inactive
CG14882 (GeneID 41994),DRSC15006,129,252,,,inactive
CG12391 (GeneID 36170),DRSC06147,160,145,,,inactive
Mos (GeneID 36404),DRSC07258,138,191,,,inactive
Ugt35C1 (GeneID 53507),DRSC16080,53.3,167,,,active
Obp56d (GeneID 37266),DRSC06064,146,228,,,inactive
CG34299 (GeneID 5740430),DRSC13974,,,,,inactive
CG31776 (GeneID 33568),DRSC00716,172,89.9,,,inactive
CG7341 (GeneID 40004),DRSC10818,144,105,,,inactive
CG16786 (GeneID 37856),DRSC04281,85.8,130,,,inactive
CG13575 (GeneID 37883),DRSC04211,159,158,,,inactive
CG13575 (GeneID 37883),DRSC22851,104,88.4,,,inactive
FipoQ (GeneID 43475),DRSC15413,123,128,,,inactive
EMC5 (GeneID 35159),DRSC02469,86.9,84,,,inactive
CG2816 (GeneID 33595),DRSC00539,155,77.4,,,inactive
CG32055 (GeneID 39188),DRSC10666,72.4,71.4,,,active
CG4988 (GeneID 34586),DRSC02800,165,155,,,inactive
Dbp45A (GeneID 35917),DRSC07395,146,117,,,inactive
Obp56a (GeneID 37264),DRSC06085,171,148,,,inactive
mRpL2 (GeneID 39253),DRSC10896,102,91.9,,,inactive
CG13108 (GeneID 34240),DRSC02206,187,149,,,inactive
IM33 (GeneID 33592),DRSC00476,156,103,,,inactive
CG15021 (GeneID 38546),DRSC08475,57,70.5,95.3,103,inactive
Idh3b (GeneID 42586),DRSC16040,123,154,,,inactive
CG10184 (GeneID 42783),DRSC14204,205,239,,,inactive
Elal (GeneID 42970),DRSC16662,198,291,,,inactive
CG33110 (GeneID 42659),DRSC14694,179,81.6,,,inactive
CG33110 (GeneID 42659),DRSC16137,169,99.9,,,inactive
lz (GeneID 31883),DRSC18790,120,110,8290,139,inactive
lz (GeneID 31883),DRSC22302,124,235,,,inactive
uri (GeneID 37924),DRSC04111,195,90.9,,,inactive
GEFmeso (GeneID 37134),DRSC06748,171,100,,,inactive
GEFmeso (GeneID 37134),DRSC06940,176,151,,,inactive
GEFmeso (GeneID 37134),DRSC21475,137,112,,,inactive
CG5790 (GeneID 35095),DRSC02896,84,102,,,inactive
CG15773 (GeneID 31494),DRSC18079,213,120,,,inactive
Ppt1 (GeneID 31805),DRSC17806,281,103,,,inactive
dpr20 (GeneID 38101),DRSC08265,115,112,,,inactive
CG14694 (GeneID 41307),DRSC14917,151,74.7,,,inactive
Dr (GeneID 45285),DRSC17002,56.3,89.7,138,7806,active
Dr (GeneID 45285),DRSC22708,52.1,85.2,,,active
su(r) (GeneID 31858),DRSC18705,110,131,,,inactive
sens (GeneID 45328),DRSC09263,,,,,inactive
sens (GeneID 45328),DRSC23086,93.7,92.4,,,inactive
Menl-2 + Menl-1,DRSC07469,153,159,,,inactive
Menl-2 + Menl-1,DRSC07470,163,185,,,inactive
CG3732 (GeneID 37588),DRSC04410,157,125,,,inactive
CG2100 (GeneID 40707),DRSC12303,142,166,,,inactive
CG31431 (GeneID 326138),DRSC14589,235,193,,,inactive
PIG-H (GeneID 40944),DRSC14856,93.9,173,,,inactive
CG7289 (GeneID 33372),DRSC00697,90.6,292,,,inactive
lncRNA:CR42735 (retired record) (GeneID 14462711),DRSC00921,96.3,154,,,inactive
Asator (GeneID 43794),DRSC17136,122,138,,,inactive
CCKLR-17D3 (GeneID 32864),DRSC20015,77.3,103,,,inactive
CCKLR-17D3 (GeneID 32864),DRSC20017,71.4,112,,,active
Cyp4d8 (GeneID 38841),DRSC11131,118,97.6,,,inactive
CG32750 (GeneID 326238),DRSC18848,217,91.2,,,inactive
Ir67b (GeneID 39194),DRSC09876,58.9,101,,,inactive
CG30177 (GeneID 246500),DRSC22680,110,151,,,inactive
CG15564 (GeneID 43696),DRSC15102,183,122,,,inactive
corto (GeneID 40616),DRSC12375,112,105,,,inactive
corto (GeneID 40616),DRSC22279,83,183,,,inactive
corto (GeneID 40616),DRSC22988,117,138,,,inactive
CG14877 (GeneID 41929),DRSC15001,141,242,,,inactive
Cpr47Ea (GeneID 36188),DRSC07333,83.7,128,,,inactive
AGBE (GeneID 326264),DRSC06861,137,105,,,inactive
